Results are given in words; binding and its absence hold for the method and conditions named. For some assays here: Binding can be weak; no strength is given.

In test [1] the target is recombinant d-IIA^Glc (V. vulnificus). As to the kind of experiment: native gel or EMSA; recombinant proteins mixed in 50 mM Tris-HCl pH 8.0, 20 mM KCl, 50 mM MgCl2, 100 mM NaCl, 30 min at 30°C; 12% native polyacrylamide gel, Coomassie stain; a new band is read as the complex; both purified.
Test [2] addresses recombinant original DctD2 (DctDWT) (V. vulnificus). The test is described as above.

B1: recombinant GlpK (rGlpK) (enzyme, UniProt Q7MI93 1-505)
chain: MTEQKYIVALDQGTTSSRAVVLDHDANIVSVSQREFTQIYPQAGWVEHDPMEIYATQSSTLVEALGKKGIRSDQVAAIGITNQRETTIVWNKETGKPVYNAIVWQCRRTADICEDLKARGLESYIRENTGLVLDPYFSGTKVKWILDNVEGAREDAEAGKLLFGTVDTWLVWKMTQGRVHVTDYTNASRTMLFNINDLCWDSKLLEEMGIPASMMPEVKRSSEIYGQTNIGGKGGTRIPISGIAGDQQAALYGQMCVEAGQAKNTYGTGCFLLMNTGQEKVTSRNGLLTTLACGPKGEPAYALEGAVFMGGASIQWLRDELKLISDAHDSEYFATKVDTSNGVYVVPAFTGLGAPYWDAYARGTIVGLTRGVNSNHIIRATLEGIAYQTRDVLDAMQADSGIKLSALRVDGGAVANNFLMQFQSDVLDTEVHRPKVTEVTALGAAYLAGLAVGYWNSIDELQGKAEIDRSFLPHQDEEKRSRRYKGWKRAVKCAQTWSELRDLED
Regarding B1, the binding entry in test [1] is “binds”; in test [2] it was “no binding (tested: 5 μM)”.

These data come from article PMC9040800.
